Results published in the supplement of paper PMC10849652.
The other results are listed elsewhere or left out.

Chains of the proteins cited; added tags and fusions are not shown. Lines headed by an entry give the natural chain unless they say otherwise; changes in a name come on top.
UniProt Q92930: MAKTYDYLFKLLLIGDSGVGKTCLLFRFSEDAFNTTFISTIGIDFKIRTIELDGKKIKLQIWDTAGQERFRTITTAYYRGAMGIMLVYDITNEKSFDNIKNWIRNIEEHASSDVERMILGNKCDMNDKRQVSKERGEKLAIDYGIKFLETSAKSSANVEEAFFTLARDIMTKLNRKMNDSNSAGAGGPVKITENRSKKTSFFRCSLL
UniProt Q8N0T1: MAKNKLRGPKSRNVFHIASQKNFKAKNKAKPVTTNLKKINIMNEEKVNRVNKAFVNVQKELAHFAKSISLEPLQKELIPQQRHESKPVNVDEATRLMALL
UniProt Q96S21: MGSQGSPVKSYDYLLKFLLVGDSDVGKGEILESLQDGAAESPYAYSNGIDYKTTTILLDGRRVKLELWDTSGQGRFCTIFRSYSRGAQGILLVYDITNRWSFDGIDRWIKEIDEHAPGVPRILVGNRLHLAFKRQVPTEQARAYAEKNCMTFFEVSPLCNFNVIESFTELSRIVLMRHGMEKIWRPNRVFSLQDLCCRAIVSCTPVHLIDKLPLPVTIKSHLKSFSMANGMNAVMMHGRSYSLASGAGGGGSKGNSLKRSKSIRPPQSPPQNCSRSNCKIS
UniProt Q9NX57: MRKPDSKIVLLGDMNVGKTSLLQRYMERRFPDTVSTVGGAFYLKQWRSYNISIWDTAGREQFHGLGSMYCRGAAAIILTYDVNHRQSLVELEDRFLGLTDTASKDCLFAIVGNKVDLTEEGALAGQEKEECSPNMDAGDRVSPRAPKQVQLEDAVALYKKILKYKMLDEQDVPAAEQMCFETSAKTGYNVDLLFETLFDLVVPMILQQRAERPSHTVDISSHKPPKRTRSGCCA
UniProt Q9BUV8: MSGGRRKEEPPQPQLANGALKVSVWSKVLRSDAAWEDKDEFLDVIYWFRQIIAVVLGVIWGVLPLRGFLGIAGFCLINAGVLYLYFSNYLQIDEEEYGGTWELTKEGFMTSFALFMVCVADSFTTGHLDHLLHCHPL
UniProt P61020: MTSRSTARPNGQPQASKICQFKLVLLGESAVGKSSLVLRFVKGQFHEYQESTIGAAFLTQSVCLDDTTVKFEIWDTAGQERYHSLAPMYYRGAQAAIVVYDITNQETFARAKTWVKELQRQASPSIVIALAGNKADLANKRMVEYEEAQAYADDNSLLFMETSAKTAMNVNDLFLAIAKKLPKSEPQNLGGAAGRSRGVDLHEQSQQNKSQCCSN
UniProt Q96B01: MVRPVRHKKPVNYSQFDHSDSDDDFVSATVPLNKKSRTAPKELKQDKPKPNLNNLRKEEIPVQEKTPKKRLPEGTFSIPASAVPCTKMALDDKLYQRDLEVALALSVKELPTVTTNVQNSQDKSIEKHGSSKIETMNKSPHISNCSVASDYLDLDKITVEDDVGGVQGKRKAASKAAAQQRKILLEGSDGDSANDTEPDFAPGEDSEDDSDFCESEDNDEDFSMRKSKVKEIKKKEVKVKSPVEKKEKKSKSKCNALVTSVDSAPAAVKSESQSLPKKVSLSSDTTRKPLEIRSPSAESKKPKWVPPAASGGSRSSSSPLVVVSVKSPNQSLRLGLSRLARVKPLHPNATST
UniProt Q9UL26: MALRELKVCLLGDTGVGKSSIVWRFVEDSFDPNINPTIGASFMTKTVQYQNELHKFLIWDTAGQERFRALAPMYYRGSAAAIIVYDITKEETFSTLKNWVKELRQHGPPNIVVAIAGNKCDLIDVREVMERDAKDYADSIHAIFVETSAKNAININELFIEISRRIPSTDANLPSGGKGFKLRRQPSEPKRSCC
UniProt P61026: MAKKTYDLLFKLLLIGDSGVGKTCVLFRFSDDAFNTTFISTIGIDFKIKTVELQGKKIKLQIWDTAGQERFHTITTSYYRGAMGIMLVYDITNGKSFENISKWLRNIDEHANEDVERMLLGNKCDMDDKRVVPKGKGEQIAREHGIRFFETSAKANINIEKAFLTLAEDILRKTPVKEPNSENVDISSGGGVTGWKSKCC
UniProt Q16576, whole entry, looked up: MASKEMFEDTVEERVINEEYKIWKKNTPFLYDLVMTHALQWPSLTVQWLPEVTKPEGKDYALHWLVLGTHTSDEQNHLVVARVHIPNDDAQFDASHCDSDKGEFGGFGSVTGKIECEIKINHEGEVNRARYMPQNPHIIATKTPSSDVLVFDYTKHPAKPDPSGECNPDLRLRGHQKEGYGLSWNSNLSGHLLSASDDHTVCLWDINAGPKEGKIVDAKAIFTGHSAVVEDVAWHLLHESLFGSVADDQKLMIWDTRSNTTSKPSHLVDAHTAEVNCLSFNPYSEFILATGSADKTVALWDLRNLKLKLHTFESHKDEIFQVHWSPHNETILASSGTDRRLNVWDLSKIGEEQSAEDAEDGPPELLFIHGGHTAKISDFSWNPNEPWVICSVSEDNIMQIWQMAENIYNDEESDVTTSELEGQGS
UniProt Q8TEU7: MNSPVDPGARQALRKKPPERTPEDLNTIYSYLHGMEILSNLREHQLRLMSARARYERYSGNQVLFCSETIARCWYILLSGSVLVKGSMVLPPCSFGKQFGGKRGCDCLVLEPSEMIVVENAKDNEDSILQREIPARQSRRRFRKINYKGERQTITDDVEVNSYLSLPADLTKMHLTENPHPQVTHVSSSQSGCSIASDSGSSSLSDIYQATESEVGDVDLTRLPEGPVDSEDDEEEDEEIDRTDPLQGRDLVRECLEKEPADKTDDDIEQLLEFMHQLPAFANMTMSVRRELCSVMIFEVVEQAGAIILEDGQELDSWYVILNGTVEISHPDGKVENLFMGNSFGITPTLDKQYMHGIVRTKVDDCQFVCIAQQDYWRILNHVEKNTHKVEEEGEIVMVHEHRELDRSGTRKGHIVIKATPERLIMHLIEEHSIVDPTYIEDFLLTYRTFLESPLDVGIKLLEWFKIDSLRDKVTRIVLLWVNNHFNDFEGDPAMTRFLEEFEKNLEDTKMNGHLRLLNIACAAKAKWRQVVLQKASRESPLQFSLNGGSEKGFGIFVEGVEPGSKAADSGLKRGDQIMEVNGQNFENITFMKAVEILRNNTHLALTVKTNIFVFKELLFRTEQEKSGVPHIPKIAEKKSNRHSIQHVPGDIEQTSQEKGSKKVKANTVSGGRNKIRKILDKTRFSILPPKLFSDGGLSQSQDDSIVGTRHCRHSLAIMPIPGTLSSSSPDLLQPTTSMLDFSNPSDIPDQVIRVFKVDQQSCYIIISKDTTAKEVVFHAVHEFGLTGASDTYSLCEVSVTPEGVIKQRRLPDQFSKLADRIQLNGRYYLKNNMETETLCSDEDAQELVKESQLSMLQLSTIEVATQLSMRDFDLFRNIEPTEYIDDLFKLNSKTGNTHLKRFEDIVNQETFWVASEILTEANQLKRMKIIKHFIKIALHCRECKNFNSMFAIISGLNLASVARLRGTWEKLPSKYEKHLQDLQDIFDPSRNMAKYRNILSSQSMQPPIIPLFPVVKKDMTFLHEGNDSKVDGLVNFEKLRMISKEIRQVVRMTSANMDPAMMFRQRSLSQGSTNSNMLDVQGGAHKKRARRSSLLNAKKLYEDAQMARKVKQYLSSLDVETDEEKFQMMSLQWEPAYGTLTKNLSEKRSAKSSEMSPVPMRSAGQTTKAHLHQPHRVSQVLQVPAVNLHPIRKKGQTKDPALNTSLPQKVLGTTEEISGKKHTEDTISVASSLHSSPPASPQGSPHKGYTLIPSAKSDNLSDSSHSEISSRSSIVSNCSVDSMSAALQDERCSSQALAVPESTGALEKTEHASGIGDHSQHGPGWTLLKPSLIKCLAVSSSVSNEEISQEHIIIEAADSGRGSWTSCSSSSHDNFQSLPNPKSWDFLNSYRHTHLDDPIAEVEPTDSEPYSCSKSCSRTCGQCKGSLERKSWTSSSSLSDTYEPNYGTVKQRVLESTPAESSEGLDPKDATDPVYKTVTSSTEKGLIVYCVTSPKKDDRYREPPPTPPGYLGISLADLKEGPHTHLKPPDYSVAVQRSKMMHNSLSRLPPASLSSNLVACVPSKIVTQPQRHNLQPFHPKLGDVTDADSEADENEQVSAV
UniProt Q7Z6M1: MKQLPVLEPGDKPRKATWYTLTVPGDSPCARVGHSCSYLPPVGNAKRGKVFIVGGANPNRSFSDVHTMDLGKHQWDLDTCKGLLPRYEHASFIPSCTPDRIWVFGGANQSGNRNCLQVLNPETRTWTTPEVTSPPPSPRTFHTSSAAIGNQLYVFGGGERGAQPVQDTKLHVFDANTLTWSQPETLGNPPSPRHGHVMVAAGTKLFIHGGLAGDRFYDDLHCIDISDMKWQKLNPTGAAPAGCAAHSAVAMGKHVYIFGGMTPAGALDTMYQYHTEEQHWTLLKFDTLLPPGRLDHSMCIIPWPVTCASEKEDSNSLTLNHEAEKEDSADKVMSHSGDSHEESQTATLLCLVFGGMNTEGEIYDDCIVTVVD
UniProt P20340: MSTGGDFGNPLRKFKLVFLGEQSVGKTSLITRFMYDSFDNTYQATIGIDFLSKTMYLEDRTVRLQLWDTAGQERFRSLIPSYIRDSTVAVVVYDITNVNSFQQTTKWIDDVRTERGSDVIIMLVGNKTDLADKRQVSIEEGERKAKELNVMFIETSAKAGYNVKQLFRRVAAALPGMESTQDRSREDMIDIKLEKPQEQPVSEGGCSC
UniProt Q15042: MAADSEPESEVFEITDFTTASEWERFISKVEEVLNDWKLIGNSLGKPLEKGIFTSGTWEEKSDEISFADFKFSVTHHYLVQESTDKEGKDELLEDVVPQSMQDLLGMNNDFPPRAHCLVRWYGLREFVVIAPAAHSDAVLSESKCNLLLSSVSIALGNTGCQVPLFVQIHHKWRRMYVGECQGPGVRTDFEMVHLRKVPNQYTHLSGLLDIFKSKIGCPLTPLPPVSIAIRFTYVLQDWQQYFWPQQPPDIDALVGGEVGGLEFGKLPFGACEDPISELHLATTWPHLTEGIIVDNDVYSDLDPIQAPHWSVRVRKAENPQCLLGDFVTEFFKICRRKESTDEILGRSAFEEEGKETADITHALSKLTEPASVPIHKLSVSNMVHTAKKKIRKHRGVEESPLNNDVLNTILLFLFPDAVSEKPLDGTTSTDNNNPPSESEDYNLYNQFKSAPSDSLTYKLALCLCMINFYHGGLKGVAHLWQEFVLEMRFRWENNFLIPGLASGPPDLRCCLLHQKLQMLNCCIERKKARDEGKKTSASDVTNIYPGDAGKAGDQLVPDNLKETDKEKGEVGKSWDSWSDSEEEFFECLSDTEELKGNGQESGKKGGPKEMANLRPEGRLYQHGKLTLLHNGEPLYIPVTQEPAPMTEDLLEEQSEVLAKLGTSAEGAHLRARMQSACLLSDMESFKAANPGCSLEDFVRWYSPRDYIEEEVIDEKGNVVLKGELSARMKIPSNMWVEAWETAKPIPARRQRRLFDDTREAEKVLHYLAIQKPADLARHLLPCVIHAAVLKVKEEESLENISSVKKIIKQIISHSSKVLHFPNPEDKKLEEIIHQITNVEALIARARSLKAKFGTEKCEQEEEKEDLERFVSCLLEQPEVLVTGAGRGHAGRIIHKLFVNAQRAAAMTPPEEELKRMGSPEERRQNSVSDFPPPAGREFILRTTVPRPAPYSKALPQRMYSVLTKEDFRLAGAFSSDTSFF
UniProt Q9H2T7: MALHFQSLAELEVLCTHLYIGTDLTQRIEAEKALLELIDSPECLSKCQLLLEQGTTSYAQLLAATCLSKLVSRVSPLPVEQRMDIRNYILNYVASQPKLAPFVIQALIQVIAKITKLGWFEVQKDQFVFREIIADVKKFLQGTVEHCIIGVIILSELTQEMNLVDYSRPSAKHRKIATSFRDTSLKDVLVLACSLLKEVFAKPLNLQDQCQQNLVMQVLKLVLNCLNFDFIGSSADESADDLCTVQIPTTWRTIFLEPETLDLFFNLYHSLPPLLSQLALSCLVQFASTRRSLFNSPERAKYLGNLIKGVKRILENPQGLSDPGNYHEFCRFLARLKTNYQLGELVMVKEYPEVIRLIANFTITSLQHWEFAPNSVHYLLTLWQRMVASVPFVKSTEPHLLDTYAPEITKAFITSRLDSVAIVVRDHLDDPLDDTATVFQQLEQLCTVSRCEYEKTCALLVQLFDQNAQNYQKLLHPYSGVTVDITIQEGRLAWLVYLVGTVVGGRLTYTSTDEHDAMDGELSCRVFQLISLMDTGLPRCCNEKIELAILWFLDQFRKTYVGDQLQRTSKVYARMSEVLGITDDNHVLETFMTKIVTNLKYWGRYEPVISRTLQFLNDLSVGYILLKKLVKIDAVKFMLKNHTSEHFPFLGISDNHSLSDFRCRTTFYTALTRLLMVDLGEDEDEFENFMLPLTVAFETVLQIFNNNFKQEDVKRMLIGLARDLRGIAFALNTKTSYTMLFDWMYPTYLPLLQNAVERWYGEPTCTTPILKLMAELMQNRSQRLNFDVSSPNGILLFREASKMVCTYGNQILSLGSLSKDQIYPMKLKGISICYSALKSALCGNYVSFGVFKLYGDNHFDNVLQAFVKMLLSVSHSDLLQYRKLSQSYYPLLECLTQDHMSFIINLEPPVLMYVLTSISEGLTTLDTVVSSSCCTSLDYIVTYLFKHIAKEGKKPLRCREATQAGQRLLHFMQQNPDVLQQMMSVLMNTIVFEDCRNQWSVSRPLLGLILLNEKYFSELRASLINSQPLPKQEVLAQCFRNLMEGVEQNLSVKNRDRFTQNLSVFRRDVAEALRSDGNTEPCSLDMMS

Experiments:
Experiment in all cases: log2 fold change, soluble protein after heating vs DMSO (PISA); higher = thermal stabilisation; K562 cells, 10 uM, 30 min; active = over 0.2 and 3.5 SD of the protein, either way, in both replicates (recomputed)
[1] = compound: NC(=O)Nc1cc(-c2cccc(F)c2)sc1C(=O)N[C@H]1CCCNC1
How it was run: (§1)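 For each measurement, 10 μM compound was applied for 30 min to K562 cells at 2×10^6 cells/mL. Aliquots were heated for 3 min across 48°C-58°C, pooled, and extracted in PBS with 0.5% NP-40 at 4°C; the supernatant after 21,000xg for 90 min was soluble protein. This was quantified by TMTpro 16plex LC-MS/MS with channel sums equalised, and thermal stability was reported relative to control samples from duplicates, on a log2 fold-change scale.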

[2] = compound: NC(=O)c1cnc(N[C@@H]2CCCC[C@@H]2N)nc1Nc1cccc(-n2nccn2)c1
How it was run: as §1

[3] = compound: NC1(c2ccc(-c3nc4ccn5c(=O)[nH]nc5c4cc3-c3ccccc3)cc2)CCC1
How it was run: as §1

[4] = compound: NCC(=O)Nc1ccc(-n2nc(C(F)(F)F)cc2-c2ccc3c(ccc4ccccc43)c2)cc1
How it was run: as §1

entinostat = compound: Nc1ccccc1NC(=O)c1ccc(CNC(=O)OCc2cccnc2)cc1 [entinostat]
How it was run: as §1

vorinostat = compound: O=C(CCCCCCC(=O)Nc1ccccc1)NO [vorinostat]
How it was run: as §1

citarinostat = compound: O=C(CCCCCCNC(=O)c1cnc(N(c2ccccc2)c2ccccc2Cl)nc1)NO [citarinostat]
How it was run: as §1

silmitasertib = compound: O=C(O)c1ccc2c(c1)nc(Nc1cccc(Cl)c1)c1ccncc12 [silmitasertib]
How it was run: as §1

[5] = compound: O=C1NC(=O)C(c2cnc3ccccn23)=C1c1cn2c3c(cc(F)cc13)CN(C(=O)N1CCCCC1)CC2
How it was run: as §1

[6] = compound: c1cc(OCCN2CCCCC2)cc(-c2n[nH]c3ccc(-c4nnc[nH]4)cc23)c1
How it was run: as §1

entospletinib = compound: c1cn2cc(-c3ccc4cn[nH]c4c3)nc(Nc3ccc(N4CCOCC4)cc3)c2n1 [entospletinib]
How it was run: as §1

Measured: log2 fold change

RAB8B (UniProt Q92930)
inactive: [1] 0.203 | [2] 0.017 | [3] -0.053 | [4] 0.2 | entinostat 0.116 | vorinostat 0.073 | citarinostat 0.03 | silmitasertib -0.049 | [5] -0.013 | [6] 0.093

RBIS (UniProt Q8N0T1)
inactive: [1] -0.021 | [2] -0.029 | [3] 0.02 | [4] 0.02 | entinostat 0.019 | vorinostat 0.014 | citarinostat 0.092 | silmitasertib -0.009 | [5] -0.002 | [6] -0.078

RAD21 (UniProt O60216)
inactive: [1] -0.043 | [2] -0.001 | [3] -0.02 | [4] -0.018 | entinostat 0.001 | vorinostat 0.069 | citarinostat 0.056 | silmitasertib 0.003 | [5] -0.049 | [6] -0.093 | entospletinib -0.006

RAB40C (UniProt Q96S21)
inactive: [1] -0.006 | [2] 0.088 | [3] 0.079 | [4] 0.01 | entinostat -0.017 | vorinostat 0.346 | citarinostat 0.013 | silmitasertib 0.152 | [5] -0.103 | [6] 0.631 | entospletinib 0.212

RAB20 (UniProt Q9NX57)
inactive: [1] -0.034 | [2] 0.015 | [3] -0.009 | [4] 0.002 | entinostat -0.003 | vorinostat -0.036 | citarinostat 0.054 | silmitasertib 0 | [5] 0.059 | [6] -0.088 | entospletinib -0.047

RAB8A isoform 2 (UniProt P61006)
inactive: [1] -0.019 | [2] 0.026 | [3] -0.057 | [4] 0.023 | entinostat -0.04 | vorinostat -0.087 | citarinostat 0.008 | silmitasertib 0.008 | [5] -0.016 | [6] -0.045 | entospletinib 0.006

RAB5IF isoform 5 (UniProt Q9BUV8)
inactive: [1] 0.008 | [2] 0.103 | [3] 0.003 | [4] -0.107 | entinostat 0.007 | vorinostat -0.019 | citarinostat 0.225 | silmitasertib -0.032 | [5] 0.168 | [6] 0.047

RAB5B (UniProt P61020)
inactive: [1] 0.123 | [2] 0.062 | [3] -0.033 | [4] 0.039 | entinostat 0.046 | vorinostat -0.031 | citarinostat 0.031 | silmitasertib -0.025 | [5] 0.009 | [6] 0.018 | entospletinib -0.03

RAD51AP1 (UniProt Q96B01)
inactive: [1] 0.035 | [2] -0.03 | [3] -0.036 | [4] 0.016 | entinostat 0.063 | vorinostat -0.002 | citarinostat 0.116 | silmitasertib 0.026 | [5] -0.045 | [6] -0.046 | entospletinib -0.089

RAB22A (UniProt Q9UL26)
inactive: [1] 0.018 | [2] 0.004 | [3] -0.009 | [4] -0.006 | entinostat -0.025 | vorinostat -0.062 | citarinostat 0.008 | silmitasertib 0.037 | [5] -0.072 | [6] -0.004 | entospletinib -0.015

RAB10 (UniProt P61026)
inactive: [1] -0.08 | [2] -0.009 | [3] 0.088 | [4] -0.015 | entinostat -0.01 | vorinostat -0.067 | citarinostat 0.016 | silmitasertib -0.009 | [5] -0.062 | [6] -0.03 | entospletinib -0.002

RBBP7 isoform 2 (UniProt Q16576)
inactive: [1] -0.015 | [2] -0.02 | [3] -0.017 | [4] -0.014 | entinostat 0.018 | vorinostat -0.011 | citarinostat 0.005 | silmitasertib 0.005 | [5] -0.009 | [6] -0.009 | entospletinib -0.015

Reprinted at random: 2 records from the list, in no set order.
RBBP7 isoform 2 (UniProt Q16576)
inactive: [1] -0.015 | [2] -0.02 | [3] -0.017 | [4] -0.014 | entinostat 0.018 | vorinostat -0.011 | citarinostat 0.005 | silmitasertib 0.005 | [5] -0.009 | [6] -0.009 | entospletinib -0.015

RAB22A (UniProt Q9UL26)
inactive: [1] 0.018 | [2] 0.004 | [3] -0.009 | [4] -0.006 | entinostat -0.025 | vorinostat -0.062 | citarinostat 0.008 | silmitasertib 0.037 | [5] -0.072 | [6] -0.004 | entospletinib -0.015

(next part)

RAPGEF6 isoform 4 (UniProt Q8TEU7)
inactive: [1] 0.062 | [2] -0.015 | [3] -0.227 | [4] 0.131 | entinostat 0.034 | vorinostat 0.138 | citarinostat 0.059 | silmitasertib 0.323 | [5] 0.278 | [6] -0.086 | entospletinib 0.146

RAB24 (UniProt Q969Q5)
inactive: [1] 0.036 | [2] 0.025 | [3] -0.018 | [4] -0.014 | entinostat 0.003 | vorinostat -0.035 | citarinostat -0.003 | silmitasertib -0.015 | [5] -0.031 | [6] 0.06 | entospletinib -0.065

RABEPK (UniProt Q7Z6M1)
inactive: [1] -0.002 | [2] 0.062 | [3] 0.04 | [4] 0.063 | entinostat -0.029 | vorinostat 0.022 | citarinostat 0.013 | silmitasertib -0.022 | [5] -0.062 | [6] 0.021 | entospletinib 0.017

RABL3 (UniProt Q5HYI8)
inactive: [1] -0.028 | [2] 0.005 | [3] -0.09 | [4] 0.024 | entinostat -0.005 | vorinostat -0.01 | citarinostat 0.033 | silmitasertib -0.005 | [5] -0.021 | [6] 0.014 | entospletinib -0.024

RAB6A isoform 2 (UniProt P20340)
inactive: [1] 0.023 | [2] 0.02 | [3] 0 | [4] 0.006 | entinostat -0.002 | vorinostat -0.021 | citarinostat -0.041 | silmitasertib -0.013 | [5] -0.161 | [6] 0.006 | entospletinib 0.043

RAB32 (UniProt Q13637)
inactive: [1] 0.034 | [2] 0.065 | [3] -0.039 | [4] -0.034 | entinostat -0.015 | vorinostat 0.013 | citarinostat 0.003 | silmitasertib 0.001 | [5] 0.041 | [6] 0.037 | entospletinib -0.068

RBBP5 (UniProt Q15291)
inactive: [1] 0.074 | [2] 0.005 | [3] 0.03 | [4] 0.014 | entinostat -0.042 | vorinostat -0.035 | citarinostat 0 | silmitasertib 0.048 | [5] 0.036 | [6] -0.016 | entospletinib -0.03

RAB3GAP1 (UniProt Q15042)
inactive: [1] -0.055 | [2] -0.093 | [3] -0.096 | [4] -0.091 | entinostat 0.015 | vorinostat 0.027 | citarinostat 0.074 | silmitasertib 0.118 | [5] 0.125 | [6] -0.055 | entospletinib 0.068

RABIF (UniProt P47224)
inactive: [1] -0.05 | [2] -0.008 | [3] 0.031 | [4] 0.13 | entinostat -0.009 | vorinostat -0.018 | citarinostat 0.063 | silmitasertib -0.044 | [5] -0.004 | [6] -0.006 | entospletinib -0.021

RANBP10 (UniProt Q6VN20)
inactive: [1] 0.098 | [2] 0.002 | [3] -0.055 | [4] -0.1 | entinostat -0.021 | vorinostat 0.021 | citarinostat -0.176 | silmitasertib 0.068 | [5] 0.051 | [6] -0.054 | entospletinib 0.017

RAB6B (UniProt Q9NRW1)
inactive: [1] 0.036 | [2] 0.06 | [3] 0.059 | [4] -0.026 | entinostat -0.009 | vorinostat -0.021 | citarinostat 0.012 | silmitasertib 0.019 | [5] 0.02 | [6] 0.025 | entospletinib -0.066

RBM3 (UniProt P98179)
inactive: [1] 0.037 | [2] 0.039 | [3] 0.415 | [4] 0.021 | entinostat -0.022 | vorinostat -0.024 | citarinostat -0.195 | silmitasertib 0.038 | [5] 0.122 | [6] -0.147 | entospletinib 0.029

RANBP17 (UniProt Q9H2T7)
inactive: [1] -0.108 | [2] -0.586 | [3] -0.152 | [4] -0.173 | entinostat 0.122 | vorinostat 0.019 | citarinostat 0.026 | silmitasertib -0.079 | [5] -0.3 | [6] -0.185 | entospletinib -0.089

RAB1A (UniProt P62820)
inactive: [1] 0.026 | [2] 0.012 | [3] 0.011 | [4] 0.028 | entinostat 0 | vorinostat -0.045 | citarinostat -0.028 | silmitasertib -0.031 | [5] -0.024 | [6] -0.023 | entospletinib 0.005

RABEP1 (UniProt Q15276)
inactive: [1] -0.058 | [2] -0.032 | [3] -0.009 | [4] -0.012 | entinostat -0.017 | vorinostat -0.053 | citarinostat 0.077 | silmitasertib -0.004 | [5] -0.104 | [6] -0.015 | entospletinib -0.038
